Reference: paper PMC13423814
Where two headings read alike, the source gives them in different places. These are yes or no findings as the source states them, for the method shown. Binding seen in cells or lysates may run through a third protein. A yes stands for co-enrichment or nearness to the bait. Other partners may have been found.

Sequences of proteins named here, by UniProt entry; tags and fusion partners are left off.
UniProt P15682: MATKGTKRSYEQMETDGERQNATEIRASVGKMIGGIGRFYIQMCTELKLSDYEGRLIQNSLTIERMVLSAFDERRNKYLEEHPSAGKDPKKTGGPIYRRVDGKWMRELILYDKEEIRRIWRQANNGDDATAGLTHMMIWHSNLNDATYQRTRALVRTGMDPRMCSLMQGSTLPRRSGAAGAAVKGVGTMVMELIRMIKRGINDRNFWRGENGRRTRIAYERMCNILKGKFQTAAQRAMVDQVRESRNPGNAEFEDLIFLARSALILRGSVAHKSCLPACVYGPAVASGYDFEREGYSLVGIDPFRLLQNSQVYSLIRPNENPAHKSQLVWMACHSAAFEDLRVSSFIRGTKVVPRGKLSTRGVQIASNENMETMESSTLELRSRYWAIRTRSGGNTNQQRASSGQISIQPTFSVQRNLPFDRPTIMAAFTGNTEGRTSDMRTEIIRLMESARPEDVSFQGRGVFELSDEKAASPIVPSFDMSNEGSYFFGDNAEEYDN

Experiments:
Experiment in all cases: affinity purification with mass spectrometry
[1] = target: T1, NONO (human (endogenous in A549)) (UniProt Q15233)
T1 sequence: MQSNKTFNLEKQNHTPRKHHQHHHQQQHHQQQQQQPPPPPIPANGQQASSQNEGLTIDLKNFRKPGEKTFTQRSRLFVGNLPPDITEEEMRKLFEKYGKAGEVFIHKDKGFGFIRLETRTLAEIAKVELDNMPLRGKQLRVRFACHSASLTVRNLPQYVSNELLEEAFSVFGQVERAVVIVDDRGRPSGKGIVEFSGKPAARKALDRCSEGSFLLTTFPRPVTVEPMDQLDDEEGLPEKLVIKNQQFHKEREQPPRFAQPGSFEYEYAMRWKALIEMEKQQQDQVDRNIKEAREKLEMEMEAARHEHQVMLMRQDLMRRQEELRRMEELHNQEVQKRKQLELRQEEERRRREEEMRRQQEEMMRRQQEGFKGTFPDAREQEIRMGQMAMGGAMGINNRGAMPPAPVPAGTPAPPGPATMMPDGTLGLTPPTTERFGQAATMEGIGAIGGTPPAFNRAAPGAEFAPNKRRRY

[2] = target: Influenza A virus nucleoprotein (NP), strain A/WSN/33 (H1N1) (influenza A virus A/WSN/33 (H1N1)) (UniProt P15682)
[3] = target: Influenza A virus nucleoprotein (NP), strain A/WSN/33 (H1N1) (influenza A virus A/WSN/33 (H1N1)) (UniProt P15682); remark: listed apart in the source

## Influenza A virus nucleoprotein (NP), strain A/WSN/33 (H1N1) (from UniProt P15682 1-498)
[1]
  binding: binds

## hnRNPK (from UniProt P61978 1-463)
[2]
  binding: binds

B1: MATR3 (protein, UniProt P43243 1-847)
chain: MSKSFQQSSLSRDSQGHGRDLSAAGIGLLAAATQSLSMPASLGRMNQGTARLASLMNLGMSSSLNQQGAHSALSSASTSSHNLQSIFNIGSRGPLPLSSQHRGDADQASNILASFGLSARDLDELSRYPEDKITPENLPQILLQLKRRRTEEGPTLSYGRDGRSATREPPYRVPRDDWEEKRHFRRDSFDDRGPSLNPVLDYDHGSRSQESGYYDRMDYEDDRLRDGERCRDDSFFGETSHNYHKFDSEYERMGRGPGPLQERSLFEKKRGAPPSSNIEDFHGLLPKGYPHLCSICDLPVHSNKEWSQHINGASHSRRCQLLLEIYPEWNPDNDTGHTMGDPFMLQQSTNPAPGILGPPPPSFHLGGPAVGPRGNLGAGNGNLQGPRHMQKGRVETSRVVHIMDFQRGKNLRYQLLQLVEPFGVISNHLILNKINEAFIEMATTEDAQAAVDYYTTTPALVFGKPVRVHLSQKYKRIKKPEGKPDQKFDQKQELGRVIHLSNLPHSGYSDSAVLKLAEPYGKIKNYILMRMKSQAFIEMETREDAMAMVDHCLKKALWFQGRCVKVDLSEKYKKLVLRIPNRGIDLLKKDKSRKRSYSPDGKESPSDKKSKTDGSQKTESSTEGKEQEEKSGEDGEKDTKDDQTEQEPNMLLESEDELLVDEEEAAALLESGSSVGDETDLANLGDVASDGKKEPSDKAVKKDGSASAAAKKKLKKVDKIEELDQENEAALENGIKNEENTEPGAESSENADDPNKDTSENADGQSDENKDDYTIPDEYRIGPYQPNVPVGIDYVIPKTGFYCKLCSLFYTNEEVAKNTHCSSLPHYQKLKKFLNKLAEERRQKKET
[3]
  binding: binds
